The record followed here is US20220257552A1, “METHODS OF PRESCREENING AND TREATING BREAST CANCERS WITH SELECTIVE ANDROGEN RECEPTOR MODULATORS” (priority 2021, published 2022).

Chains of the proteins cited; added tags and fusions are not shown. Residues count along the entry.
UniProt P10275: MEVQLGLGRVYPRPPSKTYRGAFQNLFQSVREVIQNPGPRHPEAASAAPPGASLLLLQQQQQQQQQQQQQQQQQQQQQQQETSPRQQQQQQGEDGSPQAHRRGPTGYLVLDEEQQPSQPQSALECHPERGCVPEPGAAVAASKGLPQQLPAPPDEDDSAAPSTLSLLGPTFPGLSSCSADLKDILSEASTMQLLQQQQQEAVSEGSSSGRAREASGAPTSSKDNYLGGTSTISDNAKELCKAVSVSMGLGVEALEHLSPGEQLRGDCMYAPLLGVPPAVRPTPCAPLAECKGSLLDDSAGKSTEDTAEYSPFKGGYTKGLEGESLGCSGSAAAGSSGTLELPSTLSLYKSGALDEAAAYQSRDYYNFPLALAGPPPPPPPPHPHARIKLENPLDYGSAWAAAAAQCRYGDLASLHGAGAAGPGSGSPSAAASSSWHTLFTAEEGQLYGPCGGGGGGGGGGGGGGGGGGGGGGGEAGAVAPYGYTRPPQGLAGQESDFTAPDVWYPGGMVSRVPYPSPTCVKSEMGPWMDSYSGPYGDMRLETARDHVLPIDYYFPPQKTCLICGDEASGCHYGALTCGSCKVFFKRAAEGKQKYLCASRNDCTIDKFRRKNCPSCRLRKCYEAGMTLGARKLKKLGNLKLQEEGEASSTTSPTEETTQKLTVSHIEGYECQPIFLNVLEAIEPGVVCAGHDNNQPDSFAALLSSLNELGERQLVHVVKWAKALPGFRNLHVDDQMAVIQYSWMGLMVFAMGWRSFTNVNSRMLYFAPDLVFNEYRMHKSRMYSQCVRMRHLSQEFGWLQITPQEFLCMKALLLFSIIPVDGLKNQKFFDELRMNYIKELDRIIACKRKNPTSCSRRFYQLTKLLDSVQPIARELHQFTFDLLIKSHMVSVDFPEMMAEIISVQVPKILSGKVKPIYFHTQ
UniProt Q15788, residues 2-1441: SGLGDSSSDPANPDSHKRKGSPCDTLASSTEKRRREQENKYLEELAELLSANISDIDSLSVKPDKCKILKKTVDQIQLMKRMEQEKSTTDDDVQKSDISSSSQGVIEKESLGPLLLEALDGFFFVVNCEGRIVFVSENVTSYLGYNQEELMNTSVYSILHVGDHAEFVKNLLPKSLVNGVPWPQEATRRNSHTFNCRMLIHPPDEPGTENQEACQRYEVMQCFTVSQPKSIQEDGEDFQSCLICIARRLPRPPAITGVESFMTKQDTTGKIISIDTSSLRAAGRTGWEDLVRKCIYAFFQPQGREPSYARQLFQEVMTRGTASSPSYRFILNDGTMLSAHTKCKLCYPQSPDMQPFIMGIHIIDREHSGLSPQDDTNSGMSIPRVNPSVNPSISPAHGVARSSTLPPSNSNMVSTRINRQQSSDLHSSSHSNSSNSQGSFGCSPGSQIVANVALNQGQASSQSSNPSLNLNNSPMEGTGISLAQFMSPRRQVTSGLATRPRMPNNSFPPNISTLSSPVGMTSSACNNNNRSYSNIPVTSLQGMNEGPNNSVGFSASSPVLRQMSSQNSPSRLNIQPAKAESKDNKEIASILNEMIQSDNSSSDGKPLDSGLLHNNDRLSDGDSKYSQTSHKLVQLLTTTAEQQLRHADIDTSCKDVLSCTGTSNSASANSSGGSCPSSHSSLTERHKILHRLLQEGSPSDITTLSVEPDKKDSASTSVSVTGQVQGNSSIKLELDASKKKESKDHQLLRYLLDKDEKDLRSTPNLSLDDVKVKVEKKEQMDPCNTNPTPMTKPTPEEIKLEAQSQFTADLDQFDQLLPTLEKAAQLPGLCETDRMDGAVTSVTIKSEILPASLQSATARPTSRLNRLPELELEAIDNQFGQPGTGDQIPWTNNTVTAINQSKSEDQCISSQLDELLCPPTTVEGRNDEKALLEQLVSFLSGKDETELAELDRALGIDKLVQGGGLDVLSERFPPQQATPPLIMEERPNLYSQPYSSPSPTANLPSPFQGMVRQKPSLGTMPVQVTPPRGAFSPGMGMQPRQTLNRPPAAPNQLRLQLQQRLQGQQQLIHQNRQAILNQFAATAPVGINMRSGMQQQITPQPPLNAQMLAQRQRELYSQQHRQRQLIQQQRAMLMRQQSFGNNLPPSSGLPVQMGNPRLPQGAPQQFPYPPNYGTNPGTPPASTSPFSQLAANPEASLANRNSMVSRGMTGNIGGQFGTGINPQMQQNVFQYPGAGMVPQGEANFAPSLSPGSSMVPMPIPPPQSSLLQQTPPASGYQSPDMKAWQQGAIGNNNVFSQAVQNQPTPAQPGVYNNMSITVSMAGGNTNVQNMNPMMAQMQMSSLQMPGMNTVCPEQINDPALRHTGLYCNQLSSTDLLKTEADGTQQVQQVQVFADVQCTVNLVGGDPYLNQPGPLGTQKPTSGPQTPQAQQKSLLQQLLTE

No constants are given. Whether binding was seen depends on the method and setting. Binding seen in cells or lysates may run through a third protein. Some results given as binding are weak or reduced against the parent protein; the word gives no strength.

The target of experiment [1] is androgen receptor (human (patient-derived xenograft HCI-13)) (UniProt P10275). Nature of the experiment: co-immunoprecipitation with AR antibody from HCI-13 tumor extracts, Western blot for SRC-1.
Experiment [2] shares this target. Nature of the experiment: co-immunoprecipitation with AR antibody from HCI-13 tumor extracts (vehicle or Formula IX), Western blot for SRC-1.

Consider “steroid receptor coactivator-1 (from UniProt Q15788 2-1441)”, for which the binding result in experiment [1] and in experiment [2] was “binds” in each case.
